Results on five targets are retold here after the supplement of paper PMC6411743.

The chains behind the UniProt entries cited, without tags or fusion partners. Where a name states a change or a piece, a line headed by the entry shows the natural chain unless it says otherwise.
UniProt Q7Z4V5: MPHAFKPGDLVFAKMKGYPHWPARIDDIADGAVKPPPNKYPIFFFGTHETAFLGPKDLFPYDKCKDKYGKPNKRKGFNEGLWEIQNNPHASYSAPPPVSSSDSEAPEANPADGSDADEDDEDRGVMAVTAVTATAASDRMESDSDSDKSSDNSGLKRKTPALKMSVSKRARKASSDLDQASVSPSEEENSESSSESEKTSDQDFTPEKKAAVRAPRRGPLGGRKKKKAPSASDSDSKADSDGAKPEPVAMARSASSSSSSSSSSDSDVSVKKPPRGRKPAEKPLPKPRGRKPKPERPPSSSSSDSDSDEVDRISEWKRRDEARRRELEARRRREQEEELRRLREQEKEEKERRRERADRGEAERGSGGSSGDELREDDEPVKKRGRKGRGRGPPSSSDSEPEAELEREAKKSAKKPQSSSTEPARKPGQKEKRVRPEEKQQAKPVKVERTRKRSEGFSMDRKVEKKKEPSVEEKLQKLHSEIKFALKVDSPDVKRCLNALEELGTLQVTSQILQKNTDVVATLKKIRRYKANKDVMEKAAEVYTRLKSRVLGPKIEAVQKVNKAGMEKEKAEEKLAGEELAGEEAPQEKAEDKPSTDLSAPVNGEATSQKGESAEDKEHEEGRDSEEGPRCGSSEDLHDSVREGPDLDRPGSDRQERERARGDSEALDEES
UniProt Q9H7B2: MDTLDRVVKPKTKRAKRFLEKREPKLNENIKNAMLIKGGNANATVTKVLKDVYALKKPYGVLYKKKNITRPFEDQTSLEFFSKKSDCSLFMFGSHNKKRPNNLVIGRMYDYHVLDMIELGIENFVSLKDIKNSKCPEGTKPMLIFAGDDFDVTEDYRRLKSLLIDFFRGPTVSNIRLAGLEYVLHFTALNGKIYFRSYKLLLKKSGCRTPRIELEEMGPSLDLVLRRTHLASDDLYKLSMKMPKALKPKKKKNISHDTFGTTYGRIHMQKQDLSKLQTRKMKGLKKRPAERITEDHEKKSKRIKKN
UniProt Q86SQ7: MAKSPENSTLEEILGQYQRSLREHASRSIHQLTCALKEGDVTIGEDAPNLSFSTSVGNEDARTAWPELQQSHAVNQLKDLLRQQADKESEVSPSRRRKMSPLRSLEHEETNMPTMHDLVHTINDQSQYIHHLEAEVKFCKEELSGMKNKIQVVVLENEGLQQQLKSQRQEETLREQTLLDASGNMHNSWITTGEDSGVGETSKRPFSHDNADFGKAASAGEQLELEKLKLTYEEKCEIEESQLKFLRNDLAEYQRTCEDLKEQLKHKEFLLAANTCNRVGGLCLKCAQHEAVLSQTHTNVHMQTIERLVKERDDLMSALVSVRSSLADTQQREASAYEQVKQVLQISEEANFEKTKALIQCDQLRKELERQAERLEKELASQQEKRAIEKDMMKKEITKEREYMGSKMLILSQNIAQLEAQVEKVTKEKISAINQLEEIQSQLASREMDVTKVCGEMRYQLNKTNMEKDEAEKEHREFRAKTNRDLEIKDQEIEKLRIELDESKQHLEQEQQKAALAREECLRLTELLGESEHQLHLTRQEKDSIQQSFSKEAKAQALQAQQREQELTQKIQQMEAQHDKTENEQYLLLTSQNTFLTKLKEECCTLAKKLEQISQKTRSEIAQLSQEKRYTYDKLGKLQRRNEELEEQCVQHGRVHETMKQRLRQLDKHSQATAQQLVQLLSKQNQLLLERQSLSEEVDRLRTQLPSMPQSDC
UniProt Q6FIF0: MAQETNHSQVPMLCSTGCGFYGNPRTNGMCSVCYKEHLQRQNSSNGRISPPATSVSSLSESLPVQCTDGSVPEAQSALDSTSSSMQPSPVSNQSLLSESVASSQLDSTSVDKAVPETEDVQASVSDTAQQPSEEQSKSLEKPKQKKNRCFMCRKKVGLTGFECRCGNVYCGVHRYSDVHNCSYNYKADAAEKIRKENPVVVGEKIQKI
UniProt Q6P1L5: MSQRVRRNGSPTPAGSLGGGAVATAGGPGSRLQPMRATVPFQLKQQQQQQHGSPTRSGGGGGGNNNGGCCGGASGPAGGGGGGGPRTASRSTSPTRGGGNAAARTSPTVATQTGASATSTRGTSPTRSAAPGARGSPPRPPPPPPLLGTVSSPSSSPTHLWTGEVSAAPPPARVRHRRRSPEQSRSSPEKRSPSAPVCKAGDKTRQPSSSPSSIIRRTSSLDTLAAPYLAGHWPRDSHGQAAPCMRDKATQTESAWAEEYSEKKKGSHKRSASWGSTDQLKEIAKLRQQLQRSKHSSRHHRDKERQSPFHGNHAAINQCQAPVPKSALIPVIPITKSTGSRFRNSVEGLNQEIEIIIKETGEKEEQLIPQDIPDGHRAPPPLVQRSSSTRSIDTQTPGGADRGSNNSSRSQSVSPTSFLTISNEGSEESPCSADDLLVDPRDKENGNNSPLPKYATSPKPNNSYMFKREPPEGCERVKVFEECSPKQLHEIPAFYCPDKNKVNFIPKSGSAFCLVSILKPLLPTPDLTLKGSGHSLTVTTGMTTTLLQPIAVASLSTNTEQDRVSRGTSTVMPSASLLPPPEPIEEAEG

Compound in the test: Nc1nc2c(ncn2[C@@H]2O[C@H](COP(=O)(O)OP(=O)(O)OP(=O)(O)O)[C@@H](O)[C@H]2O)c(=O)[nH]1 [guanosine triphosphate]
The test is described as follows: NP40-soluble protein abundance relative to vehicle (solubility fold change) (ratio); higher = more soluble protein in presence of GTP. The method, then:
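Solubility proteome profiling in Jurkat crude lysate. Lysate was treated with Mg-GTP (0.1-10 mM) for 10 min at room temperature and 3 min at 37 °C, then solubilised with 0.8% NP40 and benzonase, followed by ultracentrifugation. Proteins were quantified by TMT10 LC-MS/MS; the value is the NP40-soluble abundance relative to the NP40-processed vehicle, from 3 independent experiments.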

± gives the standard deviation of the averaged measurements. Some of the results follow.

Take UniProt Q7Z4V5 and related entries: the NP40-soluble protein abundance runs as follows: (concentration: 0.1mM) 0.9 ± 0.11; (concentration: 0.5mM) 0.855 ± 0.11; (concentration: 1mM) 0.875 ± 0.13; (concentration: 2mM) 0.842 ± 0.14; (concentration: 4mM) 0.857 ± 0.14; (concentration: 6mM) 0.858 ± 0.12. In addition, the NP40-soluble protein abundance by setting is: (concentration: 8mM) 0.913 ± 0.12; (concentration: 10mM) 0.949 ± 0.1.
For “Q5VXN0 and related entries (UniProt Q9H7B2)”, the NP40-soluble protein abundance stood at 1.03 ± 0.077 (concentration: 0.1mM); 1.1 ± 0.15 (concentration: 0.5mM); 1.08 ± 0.14 (concentration: 1mM); 1.05 ± 0.085 (concentration: 2mM); 0.862 ± 0.098 (concentration: 4mM); 0.843 ± 0.11 (concentration: 6mM). Besides, the NP40-soluble protein abundance runs as follows: (concentration: 8mM) 0.733 ± 0.05; (concentration: 10mM) 0.798 ± 0.093.
As for UniProt Q86SQ7 and related entries, the NP40-soluble protein abundance by setting is: (concentration: 0.1mM) 0.967 ± 0.026; (concentration: 0.5mM) 0.9735 ± 0.0059; (concentration: 1mM) 1.1 ± 0.021; (concentration: 2mM) 1.02 ± 0.09; (concentration: 4mM) 0.959 ± 0.074; (concentration: 6mM) 0.969 ± 0.082. Also, the NP40-soluble protein abundance runs as follows: (concentration: 8mM) 0.995 ± 0.08; (concentration: 10mM) 1.09 ± 0.15.
UniProt Q6FIF0 and related entries: the NP40-soluble protein abundance was determined as 0.95 ± 0.067 (concentration: 0.1mM); 0.931 ± 0.084 (concentration: 0.5mM); 1 ± 0.044 (concentration: 1mM); 0.986 ± 0.082 (concentration: 2mM); 0.969 ± 0.12 (concentration: 4mM); 0.944 ± 0.099 (concentration: 6mM). Moreover, the NP40-soluble protein abundance (concentration: 8mM) is 0.967 ± 0.12 and the NP40-soluble protein abundance (concentration: 10mM) came to 1 ± 0.054.
For the target FAM117B (UniProt Q6P1L5), the NP40-soluble protein abundance by setting is: (concentration: 0.1mM) 1.01 ± 0.018; (concentration: 0.5mM) 1.02 ± 0.018; (concentration: 1mM) 1.05 ± 0.079; (concentration: 2mM) 1.04 ± 0.013; (concentration: 4mM) 1.03 ± 0.036; (concentration: 6mM) 1.06 ± 0.056. Moreover, the NP40-soluble protein abundance reads like this: (concentration: 8mM) 1.12 ± 0.017; (concentration: 10mM) 1.11 ± 0.021.
